# The list shows a part of the results.
# The chains behind the UniProt entries cited, without tags or fusion partners. Where a name states a change or a piece, a line headed by the entry shows the natural chain unless it says otherwise.
# UniProt Q6ZMG9: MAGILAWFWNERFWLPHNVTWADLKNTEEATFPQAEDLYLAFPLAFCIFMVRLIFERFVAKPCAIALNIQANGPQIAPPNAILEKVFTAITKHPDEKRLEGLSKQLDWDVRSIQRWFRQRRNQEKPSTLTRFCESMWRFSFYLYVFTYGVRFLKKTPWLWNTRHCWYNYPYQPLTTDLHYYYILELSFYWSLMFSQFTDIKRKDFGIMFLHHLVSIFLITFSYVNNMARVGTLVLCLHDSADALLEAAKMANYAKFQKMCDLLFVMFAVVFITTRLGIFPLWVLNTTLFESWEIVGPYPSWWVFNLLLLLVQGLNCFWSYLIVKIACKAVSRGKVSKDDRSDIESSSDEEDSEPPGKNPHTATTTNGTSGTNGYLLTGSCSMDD
# UniProt Q9UPN4: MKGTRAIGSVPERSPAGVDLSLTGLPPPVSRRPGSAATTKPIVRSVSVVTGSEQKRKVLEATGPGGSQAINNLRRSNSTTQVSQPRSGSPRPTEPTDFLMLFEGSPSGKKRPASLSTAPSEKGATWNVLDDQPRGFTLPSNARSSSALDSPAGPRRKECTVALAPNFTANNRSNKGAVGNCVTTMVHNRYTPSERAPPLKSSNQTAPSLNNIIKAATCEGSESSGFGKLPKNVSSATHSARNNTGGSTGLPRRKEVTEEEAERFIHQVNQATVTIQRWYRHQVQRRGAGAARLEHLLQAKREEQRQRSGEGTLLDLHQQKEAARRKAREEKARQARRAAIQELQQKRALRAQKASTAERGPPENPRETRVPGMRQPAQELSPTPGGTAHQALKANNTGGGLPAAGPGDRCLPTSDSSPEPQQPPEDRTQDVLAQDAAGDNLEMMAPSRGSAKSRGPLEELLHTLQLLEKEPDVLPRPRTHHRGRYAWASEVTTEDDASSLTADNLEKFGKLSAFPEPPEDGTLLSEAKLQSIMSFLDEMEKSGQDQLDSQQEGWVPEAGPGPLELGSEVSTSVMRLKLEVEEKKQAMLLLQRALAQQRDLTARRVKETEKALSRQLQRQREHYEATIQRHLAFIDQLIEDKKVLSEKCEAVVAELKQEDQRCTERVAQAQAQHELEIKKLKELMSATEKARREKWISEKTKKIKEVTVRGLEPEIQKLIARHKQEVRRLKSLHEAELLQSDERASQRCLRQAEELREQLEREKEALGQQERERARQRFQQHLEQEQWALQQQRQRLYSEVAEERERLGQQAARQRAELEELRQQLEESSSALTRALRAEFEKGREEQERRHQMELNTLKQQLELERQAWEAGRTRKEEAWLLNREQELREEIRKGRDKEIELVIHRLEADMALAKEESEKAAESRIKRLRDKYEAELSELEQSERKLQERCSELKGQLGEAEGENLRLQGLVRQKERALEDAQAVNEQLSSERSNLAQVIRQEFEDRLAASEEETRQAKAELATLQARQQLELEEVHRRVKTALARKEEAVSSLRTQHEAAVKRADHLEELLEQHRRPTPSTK
# UniProt Q9NXV6: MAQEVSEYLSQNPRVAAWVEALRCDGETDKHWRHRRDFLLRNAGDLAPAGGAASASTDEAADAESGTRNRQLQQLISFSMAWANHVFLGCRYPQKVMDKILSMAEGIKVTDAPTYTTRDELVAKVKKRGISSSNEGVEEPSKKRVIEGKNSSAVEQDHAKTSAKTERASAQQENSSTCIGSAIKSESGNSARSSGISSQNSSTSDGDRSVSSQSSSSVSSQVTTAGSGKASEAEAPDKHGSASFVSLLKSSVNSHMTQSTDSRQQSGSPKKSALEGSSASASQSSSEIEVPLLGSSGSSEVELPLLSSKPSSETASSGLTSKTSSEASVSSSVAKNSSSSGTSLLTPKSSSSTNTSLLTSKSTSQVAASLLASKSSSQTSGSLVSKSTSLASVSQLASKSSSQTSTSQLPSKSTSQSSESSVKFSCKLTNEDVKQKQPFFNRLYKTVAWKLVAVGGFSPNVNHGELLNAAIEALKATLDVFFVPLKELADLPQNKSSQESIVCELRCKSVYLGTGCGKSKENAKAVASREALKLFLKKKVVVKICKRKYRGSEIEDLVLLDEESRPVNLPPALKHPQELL
# UniProt Q13042, whole entry, looked up: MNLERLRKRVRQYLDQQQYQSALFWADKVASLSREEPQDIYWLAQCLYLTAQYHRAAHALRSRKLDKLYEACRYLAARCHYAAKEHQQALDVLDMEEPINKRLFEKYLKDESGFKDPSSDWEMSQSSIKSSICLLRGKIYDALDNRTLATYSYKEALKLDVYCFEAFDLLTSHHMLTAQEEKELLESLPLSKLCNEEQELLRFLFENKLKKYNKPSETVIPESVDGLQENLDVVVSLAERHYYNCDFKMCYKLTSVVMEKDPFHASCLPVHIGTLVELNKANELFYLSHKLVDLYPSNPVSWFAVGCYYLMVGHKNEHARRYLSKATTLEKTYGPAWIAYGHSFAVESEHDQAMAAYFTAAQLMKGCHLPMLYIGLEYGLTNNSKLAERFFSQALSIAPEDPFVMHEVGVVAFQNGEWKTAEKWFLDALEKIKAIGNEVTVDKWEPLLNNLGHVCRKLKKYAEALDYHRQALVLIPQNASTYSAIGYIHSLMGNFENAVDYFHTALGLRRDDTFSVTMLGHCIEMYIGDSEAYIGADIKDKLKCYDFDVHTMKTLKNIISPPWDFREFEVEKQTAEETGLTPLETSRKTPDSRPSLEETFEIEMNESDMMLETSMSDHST
# UniProt P50750, whole entry, looked up: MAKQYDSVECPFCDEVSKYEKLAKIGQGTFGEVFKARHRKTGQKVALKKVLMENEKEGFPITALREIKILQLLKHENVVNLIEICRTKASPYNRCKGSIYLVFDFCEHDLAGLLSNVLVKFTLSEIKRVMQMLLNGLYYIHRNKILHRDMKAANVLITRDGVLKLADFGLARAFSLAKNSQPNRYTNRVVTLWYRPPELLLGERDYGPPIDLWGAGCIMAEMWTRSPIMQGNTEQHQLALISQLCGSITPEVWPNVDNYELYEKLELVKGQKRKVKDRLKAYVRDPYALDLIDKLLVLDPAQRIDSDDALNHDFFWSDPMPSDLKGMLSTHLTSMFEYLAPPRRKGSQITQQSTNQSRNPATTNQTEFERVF
# UniProt P60953, whole entry, looked up: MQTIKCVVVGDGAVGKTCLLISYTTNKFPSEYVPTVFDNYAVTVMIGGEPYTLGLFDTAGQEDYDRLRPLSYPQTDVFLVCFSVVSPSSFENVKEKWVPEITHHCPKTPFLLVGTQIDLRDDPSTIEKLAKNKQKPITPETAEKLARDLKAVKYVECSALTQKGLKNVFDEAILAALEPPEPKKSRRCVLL
# UniProt Q15517: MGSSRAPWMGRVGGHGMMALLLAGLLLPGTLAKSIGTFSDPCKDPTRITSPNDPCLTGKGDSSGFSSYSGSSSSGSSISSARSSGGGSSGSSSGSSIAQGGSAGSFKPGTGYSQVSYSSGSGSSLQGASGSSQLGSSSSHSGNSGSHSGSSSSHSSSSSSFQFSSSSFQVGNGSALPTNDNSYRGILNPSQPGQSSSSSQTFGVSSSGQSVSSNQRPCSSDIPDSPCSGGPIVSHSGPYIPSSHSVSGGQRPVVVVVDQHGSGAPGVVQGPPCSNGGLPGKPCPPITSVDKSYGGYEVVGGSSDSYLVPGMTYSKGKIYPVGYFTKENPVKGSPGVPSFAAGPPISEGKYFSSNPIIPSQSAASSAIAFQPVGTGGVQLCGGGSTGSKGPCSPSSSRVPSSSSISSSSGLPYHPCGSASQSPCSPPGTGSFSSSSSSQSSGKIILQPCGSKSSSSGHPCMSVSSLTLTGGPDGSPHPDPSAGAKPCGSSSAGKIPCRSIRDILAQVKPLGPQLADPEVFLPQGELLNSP
# UniProt Q96G28: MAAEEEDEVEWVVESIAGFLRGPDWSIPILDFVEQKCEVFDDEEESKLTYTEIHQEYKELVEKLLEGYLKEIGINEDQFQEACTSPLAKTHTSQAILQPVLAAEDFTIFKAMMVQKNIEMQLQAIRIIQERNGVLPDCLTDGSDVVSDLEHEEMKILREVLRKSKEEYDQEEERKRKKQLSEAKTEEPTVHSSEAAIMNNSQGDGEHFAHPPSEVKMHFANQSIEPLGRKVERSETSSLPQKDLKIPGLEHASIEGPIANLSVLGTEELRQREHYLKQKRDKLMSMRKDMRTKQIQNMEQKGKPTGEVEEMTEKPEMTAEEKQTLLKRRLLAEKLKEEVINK
# UniProt Q92879: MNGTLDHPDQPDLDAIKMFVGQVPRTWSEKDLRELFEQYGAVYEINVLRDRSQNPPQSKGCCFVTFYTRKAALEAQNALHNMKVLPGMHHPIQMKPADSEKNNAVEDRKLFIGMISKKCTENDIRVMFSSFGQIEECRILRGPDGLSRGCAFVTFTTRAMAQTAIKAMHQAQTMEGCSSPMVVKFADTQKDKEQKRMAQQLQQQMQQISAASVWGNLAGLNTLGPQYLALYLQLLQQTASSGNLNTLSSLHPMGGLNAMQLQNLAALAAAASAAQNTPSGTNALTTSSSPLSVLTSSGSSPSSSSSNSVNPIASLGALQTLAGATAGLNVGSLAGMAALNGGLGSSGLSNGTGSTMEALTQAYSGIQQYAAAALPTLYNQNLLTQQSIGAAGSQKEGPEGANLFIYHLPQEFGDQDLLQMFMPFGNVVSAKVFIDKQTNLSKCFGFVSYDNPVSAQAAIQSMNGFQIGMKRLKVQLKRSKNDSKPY
# UniProt Q96JB5: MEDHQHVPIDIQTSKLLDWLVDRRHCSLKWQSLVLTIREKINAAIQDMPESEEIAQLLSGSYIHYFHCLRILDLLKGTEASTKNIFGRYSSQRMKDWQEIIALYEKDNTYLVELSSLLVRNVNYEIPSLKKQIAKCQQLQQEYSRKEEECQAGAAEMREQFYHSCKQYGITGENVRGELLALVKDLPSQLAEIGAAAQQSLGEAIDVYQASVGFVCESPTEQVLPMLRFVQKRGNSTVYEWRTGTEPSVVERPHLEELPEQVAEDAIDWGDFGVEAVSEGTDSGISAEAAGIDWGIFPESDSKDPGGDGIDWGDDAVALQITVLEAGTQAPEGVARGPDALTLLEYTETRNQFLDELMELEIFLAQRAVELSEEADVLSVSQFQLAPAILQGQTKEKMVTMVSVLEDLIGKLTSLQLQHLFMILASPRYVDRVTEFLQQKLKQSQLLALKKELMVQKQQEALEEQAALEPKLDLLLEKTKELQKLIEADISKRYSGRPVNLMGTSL
# UniProt Q9H5V8, whole entry, looked up: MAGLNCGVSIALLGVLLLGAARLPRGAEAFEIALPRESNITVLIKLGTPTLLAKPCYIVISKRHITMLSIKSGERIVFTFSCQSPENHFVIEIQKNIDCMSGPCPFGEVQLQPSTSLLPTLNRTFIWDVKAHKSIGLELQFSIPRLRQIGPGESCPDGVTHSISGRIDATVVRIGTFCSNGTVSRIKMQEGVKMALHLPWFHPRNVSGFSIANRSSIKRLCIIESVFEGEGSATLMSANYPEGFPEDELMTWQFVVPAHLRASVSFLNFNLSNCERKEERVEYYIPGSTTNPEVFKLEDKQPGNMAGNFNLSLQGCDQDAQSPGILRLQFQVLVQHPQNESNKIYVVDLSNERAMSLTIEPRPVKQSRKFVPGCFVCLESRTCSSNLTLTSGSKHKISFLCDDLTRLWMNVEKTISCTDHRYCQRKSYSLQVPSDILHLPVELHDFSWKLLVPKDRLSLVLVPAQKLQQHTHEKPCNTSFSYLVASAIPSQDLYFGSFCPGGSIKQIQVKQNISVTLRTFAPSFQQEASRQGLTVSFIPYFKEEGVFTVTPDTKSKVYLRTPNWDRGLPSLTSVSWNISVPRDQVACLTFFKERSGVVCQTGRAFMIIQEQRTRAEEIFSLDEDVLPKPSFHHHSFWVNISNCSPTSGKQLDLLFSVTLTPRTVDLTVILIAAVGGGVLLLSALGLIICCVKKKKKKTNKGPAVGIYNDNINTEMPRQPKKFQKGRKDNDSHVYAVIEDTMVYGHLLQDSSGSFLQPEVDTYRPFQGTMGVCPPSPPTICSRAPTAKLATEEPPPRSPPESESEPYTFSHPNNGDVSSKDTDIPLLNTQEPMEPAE
# UniProt P41208: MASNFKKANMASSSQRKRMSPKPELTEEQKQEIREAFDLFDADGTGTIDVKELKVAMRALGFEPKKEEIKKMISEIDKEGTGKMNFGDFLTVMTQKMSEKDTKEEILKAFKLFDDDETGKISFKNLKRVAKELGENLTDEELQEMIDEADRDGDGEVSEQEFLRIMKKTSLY
# UniProt Q9BS16: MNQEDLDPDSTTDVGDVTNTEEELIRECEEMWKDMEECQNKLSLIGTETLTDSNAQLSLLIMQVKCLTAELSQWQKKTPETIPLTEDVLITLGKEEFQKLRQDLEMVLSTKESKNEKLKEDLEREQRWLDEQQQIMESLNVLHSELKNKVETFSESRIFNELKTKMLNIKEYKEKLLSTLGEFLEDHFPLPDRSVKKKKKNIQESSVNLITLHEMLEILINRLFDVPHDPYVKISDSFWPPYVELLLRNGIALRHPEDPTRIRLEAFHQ
# What was measured:
# Assay in all cases: log2 fold change, soluble protein after heating vs DMSO (PISA); higher = thermal stabilisation; K562 lysate, 10 uM; active = over 0.2 and 3.5 SD of the protein, either way, in both replicates (recomputed)
# [1] = compound: C#Cc1cccc(Nc2ncnc3cc(OCCOC)c(OCCOC)cc23)c1 [erlotinib]
# How it was run: (§1)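 A 30 min treatment with 10 μM compound was applied to crude K562 extract at 1 mg/mL protein in PBS pH 7.4 with 1 mM MgCl2. Heating for 3 min spanned 48°C-58°C, after which aliquots were pooled, adjusted to 0.5% NP-40 at 4°C and spun at 21,000xg for 90 min. TMTpro 16plex LC-MS/MS of the supernatant, with channel sums equalised, gave values recorded as log-two fold change in thermal stability against solvent controls, from duplicates.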
# [2] = compound: C/C(=N\NC(=O)C1=CC(=CC=C1)S(=O)(=O)N2CCOCC2)/C3=C(C=CC(=C3)Cl)O
# How it was run: as §1
# [3] = compound: C1=CC(=CC=C1C2=NC3=C(N2)C=C(C=C3)C(=O)N)OC4=CC=C(C=C4)Cl
# How it was run: as §1
# [4] = compound: C1=CC2=C(C=CC(=C2)/C=C\3/C(=O)NC(=NCC4=CC=CS4)S3)N=C1
# How it was run: as §1
# [5] = compound: C1=CC2=NC=CN=C2C=C1/C=C/3\C(=O)NC(=O)S3
# How it was run: as §1
# [6] = compound: C1=CC=C(C=C1)C2=NC(=C(N2)C3=CC=NC=C3)C4=CC(=C(C=C4)Cl)O
# How it was run: as §1
# [7] = compound: C1=CC=C2C(=C1)C3=NNC4=CC=CC(=C43)C2=O
# How it was run: as §1
# [8] = compound: C1CCN(C1)C(=O)NC2=CC=CC(=C2)NC3=NC=C(C(=N3)NCCC4=CN=CN4)Br
# How it was run: as §1
# [9] = compound: C1CN(CCC1(CC2=CC=C(C=C2)Cl)N)C3=NC=NC4=C3C=CN4
# How it was run: as §1
# [10] = compound: C1COCCN1CCN2C3=CC=CC=C3N=C2NC(=O)C4=CC(=CC=C4)[N+](=O)[O-] [IRAK-1-4 Inhibitor I]
# How it was run: as §1
Target,log2 fold change [1],log2 fold change [2],log2 fold change [3],log2 fold change [4],log2 fold change [5],log2 fold change [6],log2 fold change [7],log2 fold change [8],log2 fold change [9],log2 fold change [10]
CDK5RAP2 (UniProt Q96SN8),inactive: 0.037,inactive: 0.159,inactive: -0.021,inactive: -0.008,inactive: -0.09,inactive: -0.011,inactive: -0.025,inactive: -0.016,inactive: 0.001,inactive: -0.026
CEP192 (UniProt Q8TEP8),inactive: 0.035,inactive: -0.019,inactive: -0.107,inactive: -0.014,inactive: -0.036,inactive: 0.017,inactive: 0.013,inactive: -0.046,inactive: -0.036,inactive: 0.023
CERS6 isoform 2 (UniProt Q6ZMG9),inactive: 0.079,inactive: -0.007,inactive: 0.013,inactive: 0.044,inactive: -0.014,inactive: -0.109,inactive: -0.037,inactive: -0.007,inactive: -0.094,inactive: 0.066
CEP131 (UniProt Q9UPN4),inactive: -0.26,inactive: -0.014,inactive: 0.052,inactive: -0.065,inactive: 0.063,inactive: 0.004,inactive: -0.071,inactive: 0.004,inactive: -0.06,inactive: 0.034
CDK7 (UniProt P50613),inactive: 0.011,inactive: 0.04,inactive: 0.106,inactive: -0.034,inactive: -0.036,inactive: 0.006,inactive: -0.009,inactive: -0.022,inactive: 0.018,inactive: 0.017
CDKN2AIP (UniProt Q9NXV6),inactive: -0.047,inactive: 0.067,inactive: 0.072,inactive: -0.01,inactive: -0.074,inactive: -0.006,inactive: -0.079,inactive: -0.038,inactive: 0,inactive: 0.048
CDC16 (UniProt Q13042),inactive: -0.006,inactive: -0.067,inactive: -0.051,inactive: 0.031,inactive: -0.009,inactive: 0.006,inactive: 0.019,inactive: 0.027,inactive: -0.056,inactive: -0.004
CEP170 (UniProt Q5SW79),inactive: 0.01,inactive: 0.011,inactive: 0.007,inactive: -0.136,inactive: -0.212,inactive: -0.021,inactive: -0.141,inactive: -0.05,inactive: 0.008,inactive: -0.021
CEP250 (UniProt Q9BV73),inactive: 0,inactive: -0.009,inactive: -0.014,inactive: -0.021,inactive: -0.012,inactive: 0.024,inactive: 0.007,inactive: 0.181,inactive: 0.091,inactive: -0.019
CDC23 (UniProt Q9UJX2),inactive: -0.011,inactive: -0.029,inactive: -0.017,inactive: -0.002,inactive: -0.01,inactive: -0.001,inactive: 0.005,inactive: 0.005,inactive: -0.005,inactive: 0.011
CDK9 isoform 2 (UniProt P50750),inactive: -0.055,inactive: -0.054,inactive: 0.195,inactive: 0.019,inactive: 0.02,inactive: -0.01,inactive: 0.019,inactive: 0.102,inactive: 0.005,inactive: -0.002
CDCA5 (UniProt Q96FF9),inactive: -0.026,inactive: -0.155,inactive: -0.025,inactive: 0,inactive: -0.066,inactive: 0.016,inactive: -0.16,inactive: -0.031,inactive: -0.006,inactive: 0.016
CDC45 isoform 3 (UniProt O75419),inactive: 0.035,inactive: -0.008,inactive: -0.065,inactive: 0.029,inactive: -0.005,inactive: -0.022,inactive: -0.017,inactive: -0.014,inactive: -0.004,inactive: 0.066
CDC7 (UniProt O00311),inactive: -0.032,inactive: 0.038,inactive: 0.038,inactive: -0.109,active: -0.324,inactive: -0.006,inactive: -0.027,inactive: -0.003,inactive: -0.096,inactive: 0.032
CDAN1 (UniProt Q8IWY9),inactive: 0.006,inactive: -0.01,inactive: 0.048,inactive: -0.025,inactive: -0.012,inactive: -0.04,inactive: -0.063,inactive: -0.001,inactive: 0,inactive: 0.003
CERS2 (UniProt Q96G23),inactive: 0.029,inactive: -0.033,inactive: -0.019,inactive: 0.063,inactive: -0.031,inactive: -0.04,inactive: -0.015,inactive: 0.051,inactive: 0.024,inactive: -0.083
CDC123 (UniProt O75794),inactive: 0.013,inactive: -0.02,inactive: -0.011,inactive: -0.006,inactive: -0.06,inactive: -0.006,inactive: 0.013,inactive: 0,inactive: -0.004,inactive: -0.025
CDC42 (UniProt P60953),inactive: -0.079,inactive: 0.093,inactive: 0.02,inactive: 0.034,inactive: -0.039,inactive: 0.015,inactive: 0.064,inactive: 0,inactive: -0.023,inactive: -0.013
CDSN (UniProt Q15517),inactive: 0.315,inactive: -0.226,inactive: -0.358,inactive: 0.012,inactive: 0.567,inactive: -0.081,inactive: 0.018,inactive: -0.313,inactive: -0.354,inactive: 0.248
CFAP36 (UniProt Q96G28),inactive: -0.007,inactive: 0.042,inactive: 0.013,inactive: -0.004,inactive: 0.008,inactive: 0.034,inactive: 0.002,inactive: 0.008,inactive: 0.027,inactive: -0.003
CELF1 isoform 4 (UniProt Q92879),inactive: -0.101,inactive: -0.039,inactive: 0.013,inactive: 0.055,inactive: 0,inactive: -0.031,inactive: -0.03,inactive: -0.002,inactive: -0.043,inactive: -0.045
CDK5RAP3 isoform 4 (UniProt Q96JB5),inactive: 0.009,inactive: -0.068,inactive: -0.011,inactive: -0.018,inactive: 0.031,inactive: -0.002,inactive: -0.014,inactive: -0.016,inactive: 0.016,inactive: 0.022
CDCP1 (UniProt Q9H5V8),inactive: -0.04,inactive: 0.086,inactive: 0.04,inactive: -0.011,inactive: 0.011,inactive: 0.025,inactive: 0.02,inactive: 0.029,inactive: 0.008,inactive: 0.063
CETN2 (UniProt P41208),inactive: 0.02,inactive: 0.018,inactive: 0.017,inactive: -0.089,inactive: -0.066,inactive: -0.007,inactive: -0.043,inactive: -0.007,inactive: 0.012,inactive: -0.068
CDC42EP4 (UniProt Q9H3Q1),inactive: 0.025,inactive: -0.053,inactive: -0.005,inactive: 0.017,inactive: -0.109,inactive: 0.007,inactive: 0.044,inactive: -0.069,inactive: 0.054,inactive: -0.055
CENPK (UniProt Q9BS16),inactive: -0.036,inactive: -0.097,inactive: 0.063,inactive: -0.055,inactive: 0.007,inactive: -0.024,inactive: -0.088,inactive: -0.018,inactive: 0.01,inactive: 0.011
CENPU (UniProt Q71F23),inactive: 0.012,inactive: 0.009,inactive: 0.016,inactive: 0.098,inactive: -0.038,inactive: -0.029,inactive: 0.063,inactive: -0.009,inactive: -0.075,inactive: -0.013

# An excerpt of these results, bar-delimited.
Target | log2 fold change [1] | log2 fold change [2] | log2 fold change [3] | log2 fold change [4] | log2 fold change [5] | log2 fold change [6] | log2 fold change [7] | log2 fold change [8] | log2 fold change [9] | log2 fold change [10]
CERS6 isoform 2 (UniProt Q6ZMG9) | inactive: 0.079 | inactive: -0.007 | inactive: 0.013 | inactive: 0.044 | inactive: -0.014 | inactive: -0.109 | inactive: -0.037 | inactive: -0.007 | inactive: -0.094 | inactive: 0.066
CFAP36 (UniProt Q96G28) | inactive: -0.007 | inactive: 0.042 | inactive: 0.013 | inactive: -0.004 | inactive: 0.008 | inactive: 0.034 | inactive: 0.002 | inactive: 0.008 | inactive: 0.027 | inactive: -0.003

# Reference: the supplement of paper PMC10849652
